No constants are given. Whether binding was seen depends on the method and setting.
How the values were obtained:
[1] = biological target: binase, secreted guanyl-preferring ribonuclease of Bacillus pumilus (Bacillus pumilus) (UniProt P00649); test: condition: only less than 50 ng of enzyme in the presence of 0.1% SDS; SDS-PAGE; binase at nanoconcentrations (less than 50 ng) in the presence of 0.1% SDS; SDS/protein ratio more than 1000; both purified
[2] = biological target: binase, secreted guanyl-preferring ribonuclease of Bacillus pumilus (Bacillus pumilus) (UniProt P00649); test: condition: only less than 50 ng of enzyme, after electrophoresis with SDS; zymogram (in-gel detection of catalytic activity after PAGE); binase at nanoconcentrations (less than 50 ng); both purified

binding [1]: no binding | binding [2]: no binding
B1: binase, secreted guanyl-preferring ribonuclease of Bacillus pumilus (enzyme, UniProt P00649 54-162, looked up)
chain: AVINTFDGVADYLIRYKRLPDNYITKSQASALGWVASKGNLAEVAPGKSIGGDVFSNREGRLPSASGRTWREADINYVSGFRNADRLVYSSDWLIYKTTDHYATFTRIR
notes: binase, secreted ribonuclease of Bacillus pumilus (formerly Bacillus intermedius); also called B. pumilus secreted RNase; Bacillus intermedius RNase; source: isolated from B. pumilus culture fluid, purified

From PMC6196983, “The Native Monomer of Bacillus Pumilus Ribonuclease Does Not Exist Extracellularly” (BioMed Research International, 2018)
